Results as given in paper PMC10450178.

Legend:
[1] = molecular target: hen egg-white lysozyme (HEL) (hen) (UniProt P00698); test: SPR; conditions: 200 nM, used to define background; all-HNA; Buffer R: 20 mM HEPES pH 7.4-7.5, 20 mM NaOAc, 140 mM KOAc, 3 mM Mg(OAc)2, 0.1% Tween20; SPR at 20 C, BLI temperature not stated; commercial protein; protein details: biotin (NHS-PEG4 for BLI); synthetic backbone; letters put together from the description
[2] = molecular target: hen egg-white lysozyme (HEL) (Gallus gallus) (UniProt P00698); test: BLI; conditions: all-HNA; Buffer R: 20 mM HEPES pH 7.5, 20 mM NaOAc, 140 mM KOAc, 3 mM Mg(OAc)2, 0.1% Tween20; BLI temperature not stated; commercial protein; protein details: biotin (NHS-PEG4); synthetic backbone; letters put together from the description
[3] = molecular target: hen egg-white lysozyme (HEL) (hen) (UniProt P00698); test: BLI; conditions: all-HNA; Buffer R: 20 mM HEPES pH 7.4-7.5, 20 mM NaOAc, 140 mM KOAc, 3 mM Mg(OAc)2, 0.1% Tween20; commercial protein; protein details: biotin (NHS-PEG4 for BLI); synthetic backbone; letters put together from the description
HEL R73A R91A (hen) = HEL R73A R91A (hen) (UniProt P00698); test: BLI; conditions: 100 nM core14; all-HNA (1',5'-anhydrohexitol); Buffer R: 20 mM HEPES pH 7.4-7.5, 20 mM NaOAc, 140 mM KOAc, 3 mM Mg(OAc)2, 0.1% Tween20; recombinant protein; protein details: biotin (NHS-PEG4); synthetic backbone
[4] = molecular target: HEL position 66 alanine mutant D84A (hen) (UniProt P00698); test: BLI; conditions: 100 nM core14, hotspot; all-HNA (1',5'-anhydrohexitol); Buffer R: 20 mM HEPES pH 7.4-7.5, 20 mM NaOAc, 140 mM KOAc, 3 mM Mg(OAc)2, 0.1% Tween20; recombinant protein; protein details: biotin (NHS-PEG4); synthetic backbone
HEL K1A K19A (hen) = HEL K1A K19A (hen) (UniProt P00698); test: BLI; conditions: 100 nM core14; all-HNA (1',5'-anhydrohexitol); Buffer R: 20 mM HEPES pH 7.4-7.5, 20 mM NaOAc, 140 mM KOAc, 3 mM Mg(OAc)2, 0.1% Tween20; recombinant protein; protein details: biotin (NHS-PEG4); synthetic backbone
HEL R61A R79A (hen) = HEL R61A R79A (hen) (UniProt P00698); test: BLI; conditions: 100 nM core14; all-HNA (1',5'-anhydrohexitol); Buffer R: 20 mM HEPES pH 7.4-7.5, 20 mM NaOAc, 140 mM KOAc, 3 mM Mg(OAc)2, 0.1% Tween20; recombinant protein; protein details: biotin (NHS-PEG4); synthetic backbone

Sequence: AGGTAGTGCTGTTCGTTCATCTCAAATCTAGTTCGCTATCCAGTTGGC [T5-S8-7 (anti-TAR HNA aptamer)]
- binding result [1]: no binding

Sequence: GTCCGTTTAAATGTGTGTCGTCGTTCGCTATCC [core13 T3C]
- binding result [2]: no binding

Sequence: GTTCGTTTAAATGTGTGTCGTCGTTCCCTATCC [core13 G27C]
- binding result [3]: binds more weakly

Sequence: GTTCGTTTAAATGTGTGTCGTCATTCGCTATCC [core13 G23A]
- binding result [2]: no binding

Sequence: GTTCGTTTAAATGTGTGTCATCGTTCGCTATCC [core13 G20A]
- binding result [2]: no binding

Sequence: GACTTGCGTGGTTCTATTGTTACCGTTCGTCAT [core13 scrambled]
- binding result [1]: no binding

Sequence: GTTCGTTTAAGTGTGTGTCGTCGTTCGCTATCC [core13 A11G]
- binding result [2]: no binding

Sequence: GTTCGTTTAAATATGTGTCGTCGTTCGCTATCC [core13 G13A]
- binding result [3]: binds more weakly

Sequence: GTGCTGTTCGTTTAAATGTGTGTCGTCGTTCGCTATCC [LYS-S8-19-core14 (HNA)]
- binding result (HEL R73A R91A (hen)): binds more weakly
- binding result [4]: binds more weakly
- binding result (HEL K1A K19A (hen)): binds more weakly
- binding result (HEL R61A R79A (hen)): binds more weakly

For part of these data: Negatives hold for the conditions tested. For part of these data: At least one verdict rests on a figure or table, not on a statement of the authors. For part of these data: A weaker result is weaker than the reference pair of the same experiment. For part of these data: For at least one entry, the source does not settle the construct or the ends of the probe.
